The record followed here is article PMC6944706.

Protein sequences, listed by entry. Tags and fused reporters are not part of them.
UniProt P54646: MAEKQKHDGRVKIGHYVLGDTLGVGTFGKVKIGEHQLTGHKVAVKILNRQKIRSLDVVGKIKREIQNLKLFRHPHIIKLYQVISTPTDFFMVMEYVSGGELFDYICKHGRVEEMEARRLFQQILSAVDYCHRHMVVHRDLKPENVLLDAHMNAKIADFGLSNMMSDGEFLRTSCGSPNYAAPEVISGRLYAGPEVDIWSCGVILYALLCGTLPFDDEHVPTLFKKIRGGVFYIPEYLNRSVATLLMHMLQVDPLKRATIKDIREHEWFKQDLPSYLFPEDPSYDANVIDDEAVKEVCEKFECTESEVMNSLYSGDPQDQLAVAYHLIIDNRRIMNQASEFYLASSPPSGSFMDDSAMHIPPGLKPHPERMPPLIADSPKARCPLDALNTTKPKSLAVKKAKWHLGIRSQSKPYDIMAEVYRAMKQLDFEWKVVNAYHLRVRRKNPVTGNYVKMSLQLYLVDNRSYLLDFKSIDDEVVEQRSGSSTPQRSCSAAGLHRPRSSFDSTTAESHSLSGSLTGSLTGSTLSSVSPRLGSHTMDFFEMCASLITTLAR

Assay [1] has as its target AMP-activated protein kinase catalytic subunit alpha-2 (AMPKα2), endogenous in MDA-MB-231 cells (human (endogenous in MDA-MB-231)) (UniProt P54646). Briefly: co-IP; endogenous proteins; MDA-MB-231 cells lysed in RIPA buffer with PMSF; lysate incubated with IgG, anti-UBE2O or anti-AMPKα2 antibodies at 4 °C overnight, beads 4 h, washed with TBS with PMSF; western blot. For orientation: Immunoblotting shows a protein as a band on a membrane.

The target of assay [2] is MYC-tagged AMPKα2 (UniProt P54646). Put plainly: co-IP; MCF-7 cells transfected with Flag-tagged UBE2O and MYC-tagged AMPKα2 plasmids, alone or together, lysed after 48 h; immunoprecipitated with MYC-tag antibodies; western blot with anti-UBE2O or anti-AMPKα2 antibodies.

These are yes or no findings as the source states them, for the method shown. Binding seen in cells or lysates may run through a third protein. Some results given as binding are weak or reduced against the parent protein; the word gives no strength. For some assays here: Sequences can lack the tags named with a protein.

B1: Ubiquitin-conjugating enzyme E2O (UBE2O), endogenous in MDA-MB-231 cells (enzyme, UniProt Q9C0C9 1-1292)
chain: MADPAAPTPAAPAPAQAPAPAPEAVPAPAAAPVPAPAPASDSASGPSSDSGPEAGSQRLLFSHDLVSGRYRGSVHFGLVRLIHGEDSDSEGEEEGRGSSGCSEAGGAGHEEGRASPLRRGYVRVQWYPEGVKQHVKETKLKLEDRSVVPRDVVRHMRSTDSQCGTVIDVNIDCAVKLIGTNCIIYPVNSKDLQHIWPFMYGDYIAYDCWLGKVYDLKNQIILKLSNGARCSMNTEDGAKLYDVCPHVSDSGLFFDDSYGFYPGQVLIGPAKIFSSVQWLSGVKPVLSTKSKFRVVVEEVQVVELKVTWITKSFCPGGTDSVSPPPSVITQENLGRVKRLGCFDHAQRQLGERCLYVFPAKVEPAKIAWECPEKNCAQGEGSMAKKVKRLLKKQVVRIMSCSPDTQCSRDHSMEDPDKKGESKTKSEAESASPEETPDGSASPVEMQDEGAEEPHEAGEQLPPFLLKEGRDDRLHSAEQDADDEAADDTDDTSSVTSSASSTTSSQSGSGTSRKKSIPLSIKNLKRKHKRKKNKITRDFKPGDRVAVEVVTTMTSADVMWQDGSVECNIRSNDLFPVHHLDNNEFCPGDFVVDKRVQSCPDPAVYGVVQSGDHIGRTCMVKWFKLRPSGDDVELIGEEEDVSVYDIADHPDFRFRTTDIVIRIGNTEDGAPHKEDEPSVGQVARVDVSSKVEVVWADNSKTIILPQHLYNIESEIEESDYDSVEGSTSGASSDEWEDDSDSWETDNGLVEDEHPKIEEPPIPPLEQPVAPEDKGVVISEEAATAAVQGAVAMAAPMAGLMEKAGKDGPPKSFRELKEAIKILESLKNMTVEQLLTGSPTSPTVEPEKPTREKKFLDDIKKLQENLKKTLDNVAIVEEEKMEAVPDVERKEDKPEGQSPVKAEWPSETPVLCQQCGGKPGVTFTSAKGEVFSVLEFAPSNHSFKKIEFQPPEAKKFFSTVRKEMALLATSLPEGIMVKTFEDRMDLFSALIKGPTRTPYEDGLYLFDIQLPNIYPAVPPHFCYLSQCSGRLNPNLYDNGKVCVSLLGTWIGKGTERWTSKSSLLQVLISIQGLILVNEPYYNEAGFDSDRGLQEGYENSRCYNEMALIRVVQSMTQLVRRPPEVFEQEIRQHFSTGGWRLVNRIESWLETHALLEKAQALPNGVPKASSSPEPPAVAELSDSGQQEPEDGGPAPGEASQGSDSEGGAQGLASASRDHTDQTSETAPDASVPPSVKPKKRRKSYRSFLPEKSGYPDIGFPLFPLSKGFIKSIRGVLTQFRAALLEAGMPECTEDK
Regarding B1, the binding entry in assay [1] is listed as “binds”.

B2: Flag-tagged UBE2O (enzyme, UniProt Q9C0C9 1-1292)
chain: B1 chain
In the case of B2, the binding result in assay [2] is “binds”.
